First the molecules themselves.
B1: S-methyl-5′-thioadenosine phosphorylase (protein, UniProt Q13126 1-283)
chain: MASGTTTTAVKIGIIGGTGLDDPEILEGRTEKYVDTPFGKPSDALILGKIKNVDCVLLARHGRQHTIMPSKVNYQANIWALKEEGCTHVIVTTACGSLREEIQPGDIVIIDQFIDRTTMRPQSFYDGSHSCARGVCHIPMAEPFCPKTREVLIETAKKLGLRCHSKGTMVTIEGPRFSSRAESFMFRTWGADVINMTTVPEVVLAKEAGICYASIAMATDYDCWKEHEEAVSVDRVLKTLKENANKAKSLLLTTIPQIGSTEWSETLHNLKNMAQFSVLLPRH
B2: Syntaxin-12 (protein, UniProt Q86Y82 1-276)
chain: MSYGPLDMYRNPGPSGPQLRDFSSIIQTCSGNIQRISQATAQIKNLMSQLGTKQDSSKLQENLQQLQHSTNQLAKETNELLKELGSLPLPLSTSEQRQQRLQKERLMNDFSAALNNFQAVQRRVSEKEKESIARARAGSRLSAEERQREEQLVSFDSHEEWNQMQSQEDEVAITEQDLELIKERETAIRQLEADILDVNQIFKDLAMMIHDQGDLIDSIEANVESSEVHVERATEQLQRAAYYQKKSRKKMCILVLVLSVIILILGLIIWLVYKTK
B3: Protein jagunal homolog 1 (protein, UniProt Q8N5M9 1-183)
chain: MASRAGPRAAGTDGSDFQHRERVAMHYQMSVTLKYEIKKLIYVHLVIWLLLVAKMSVGHLRLLSHDQVAMPYQWEYPYLLSILPSLLGLLSFPRNNISYLVLSMISMGLFSIAPLIYGSMEMFPAAQQLYRHGKAYRFLFGFSAVSIMYLVLVLAVQVHAWQLYYSKKLLDSWFTSTQEKKHK
B4: Mannose-6-phosphate isomerase (protein, UniProt P34949 1-423)
chain: MAAPRVFPLSCAVQQYAWGKMGSNSEVARLLASSDPLAQIAEDKPYAELWMGTHPRGDAKILDNRISQKTLSQWIAENQDSLGSKVKDTFNGNLPFLFKVLSVETPLSIQAHPNKELAEKLHLQAPQHYPDANHKPEMAIALTPFQGLCGFRPVEEIVTFLKKVPEFQFLIGDEAATHLKQTMSHDSQAVASSLQSCFSHLMKSEKKVVVEQLNLLVKRISQQAAAGNNMEDIFGELLLQLHQQYPGDIGCFAIYFLNLLTLKPGEAMFLEANVPHAYLKGDCVECMACSDNTVRAGLTPKFIDVPTLCEMLSYTPSSSKDRLFLPTRSQEDPYLSIYDPPVPDFTIMKTEVPGSVTEYKVLALDSASILLMVQGTVIASTPTTQTPIPLQRGGVLFIGANESVSLKLTEPKDLLIFRACCLL
B5: Cystatin-B (protein, UniProt P04080 1-98)
chain: MMCGAPSATQPATAETQHIADQVRSQLEEKENKKFPVFKAVSFKSQVVAGTNYFIKVHVGDEDFVHLRVFQSLPHENKPLTLSNYQTNKAKHDELTYF
B6: Protein disulfide-isomerase TMX3 (protein, UniProt Q96JJ7 25-454)
chain: KGFVEDLDESFKENRNDDIWLVDFYAPWCGHCKKLEPIWNEVGLEMKSIGSPVKVGKMDATSYSSIASEFGVRGYPTIKLLKGDLAYNYRGPRTKDDIIEFAHRVSGALIRPLPSQQMFEHMQKRHRVFFVYVGGESPLKEKYIDAASELIVYTYFFSASEEVVPEYVTLKEMPAVLVFKDETYFVYDEYEDGDLSSWINRERFQNYLAMDGFLLYELGDTGKLVALAVIDEKNTSVEHTRLKSIIQEVARDYRDLFHRDFQFGHMDGNDYINTLLMDELTVPTVVVLNTSNQQYFLLDRQIKNVEDMVQFINNILDGTVEAQGGDSILQRLKRIVFDAKSTIVSIFKSSPLMGCFLFGLPLGVISIMCYGIYTADTDGGYIEERYEVSKSENENQEQIEESKEQQEPSSGGSVVPTVQEPKDVLEKKKD
B7: Peroxiredoxin-5 (protein, UniProt P30044 53-214)
chain: MAPIKVGDAIPAVEVFEGEPGNKVNLAELFKGKKGVLFGVPGAFTPGCSKTHLPGFVEQAEALKAKGVQVVACLSVNDAFVTGEWGRAHKAEGKVRLLADPTGAFGKETDLLLDDSLVSIFGNRRLKRFSMVVQDGIVKALNVEPDGTGLTCSLAPNIISQL
B8: Phosphoserine aminotransferase (protein, UniProt Q9Y617 1-370)
chain: MDAPRQVVNFGPGPAKLPHSVLLEIQKELLDYKGVGISVLEMSHRSSDFAKIINNTENLVRELLAVPDNYKVIFLQGGGCGQFSAVPLNLIGLKAGRCADYVVTGAWSAKAAEEAKKFGTINIVHPKLGSYTKIPDPSTWNLNPDASYVYYCANETVHGVEFDFIPDVKGAVLVCDMSSNFLSKPVDVSKFGVIFAGAQKNVGSAGVTVVIVRDDLLGFALRECPSVLEYKVQAGNSSLYNTPPCFSIYVMGLVLEWIKNNGGAAAMEKLSSIKSQTIYEIIDNSQGFYVCPVEPQNRSKMNIPFRIGNAKGDDALEKRFLDKALELNMLSLKGHRSVGGIRASLYNAVTIEDVQKLAAFMKKFLEMHQL
B9: Synaptojanin-2-binding protein (protein, UniProt P57105 1-145)
chain: MNGRVDYLVTEEEINLTRGPSGLGFNIVGGTDQQYVSNDSGIYVSRIKENGAAALDGRLQEGDKILSVNGQDLKNLLHQDAVDLFRNAGYAVSLRVQHRLQVQNGPIGHRGEGDPSGIPIFMVLVPVFALTMVAAWAFMRYRQQL
B10: Adipocyte plasma membrane-associated protein (protein, UniProt Q9HDC9 1-416)
chain: MSEADGLRQRRPLRPQVVTDDDGQAPEAKDGSSFSGRVFRVTFLMLAVSLTVPLLGAMMLLESPIDPQPLSFKEPPLLLGVLHPNTKLRQAERLFENQLVGPESIAHIGDVMFTGTADGRVVKLENGEIETIARFGSGPCKTRDDEPVCGRPLGIRAGPNGTLFVADAYKGLFEVNPWKREVKLLLSSETPIEGKNMSFVNDLTVTQDGRKIYFTDSSSKWQRRDYLLLVMEGTDDGRLLEYDTVTREVKVLLDQLRFPNGVQLSPAEDFVLVAETTMARIRRVYVSGLMKGGADLFVENMPGFPDNIRPSSSGGYWVGMSTIRPNPGFSMLDFLSERPWIKRMIFKLFSQETVMKFVPRYSLVLELSDSGAFRRSLHDPDGLVATYISEVHEHDGHLYLGSFRSPFLCRLSLQAV

Protein sequences, listed by entry. Tags and fused reporters are not part of them. Lines headed by an entry give the natural chain unless they say otherwise; changes in a name come on top. Residues count along the entry.
UniProt Q9NYG2: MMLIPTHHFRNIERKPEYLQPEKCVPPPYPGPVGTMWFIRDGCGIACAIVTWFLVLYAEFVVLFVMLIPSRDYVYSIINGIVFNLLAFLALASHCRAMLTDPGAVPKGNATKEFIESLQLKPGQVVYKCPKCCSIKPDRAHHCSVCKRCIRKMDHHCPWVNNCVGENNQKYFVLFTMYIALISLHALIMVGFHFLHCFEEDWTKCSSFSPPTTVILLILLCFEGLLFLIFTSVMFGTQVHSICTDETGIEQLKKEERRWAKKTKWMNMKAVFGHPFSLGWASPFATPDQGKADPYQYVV
UniProt P05091, residues 18-517: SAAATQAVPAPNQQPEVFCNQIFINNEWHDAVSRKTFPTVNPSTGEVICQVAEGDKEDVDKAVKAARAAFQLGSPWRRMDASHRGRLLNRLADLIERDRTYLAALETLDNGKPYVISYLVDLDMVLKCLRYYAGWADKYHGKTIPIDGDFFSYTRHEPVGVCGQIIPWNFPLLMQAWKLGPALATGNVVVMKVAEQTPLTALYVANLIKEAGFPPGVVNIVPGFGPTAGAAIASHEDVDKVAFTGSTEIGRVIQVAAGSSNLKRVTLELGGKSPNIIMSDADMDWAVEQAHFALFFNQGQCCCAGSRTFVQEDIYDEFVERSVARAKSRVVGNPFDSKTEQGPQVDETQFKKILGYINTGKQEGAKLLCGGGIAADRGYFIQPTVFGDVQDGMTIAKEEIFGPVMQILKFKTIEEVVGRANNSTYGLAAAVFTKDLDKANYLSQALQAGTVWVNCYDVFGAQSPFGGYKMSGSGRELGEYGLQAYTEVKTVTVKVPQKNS
UniProt Q8NE71: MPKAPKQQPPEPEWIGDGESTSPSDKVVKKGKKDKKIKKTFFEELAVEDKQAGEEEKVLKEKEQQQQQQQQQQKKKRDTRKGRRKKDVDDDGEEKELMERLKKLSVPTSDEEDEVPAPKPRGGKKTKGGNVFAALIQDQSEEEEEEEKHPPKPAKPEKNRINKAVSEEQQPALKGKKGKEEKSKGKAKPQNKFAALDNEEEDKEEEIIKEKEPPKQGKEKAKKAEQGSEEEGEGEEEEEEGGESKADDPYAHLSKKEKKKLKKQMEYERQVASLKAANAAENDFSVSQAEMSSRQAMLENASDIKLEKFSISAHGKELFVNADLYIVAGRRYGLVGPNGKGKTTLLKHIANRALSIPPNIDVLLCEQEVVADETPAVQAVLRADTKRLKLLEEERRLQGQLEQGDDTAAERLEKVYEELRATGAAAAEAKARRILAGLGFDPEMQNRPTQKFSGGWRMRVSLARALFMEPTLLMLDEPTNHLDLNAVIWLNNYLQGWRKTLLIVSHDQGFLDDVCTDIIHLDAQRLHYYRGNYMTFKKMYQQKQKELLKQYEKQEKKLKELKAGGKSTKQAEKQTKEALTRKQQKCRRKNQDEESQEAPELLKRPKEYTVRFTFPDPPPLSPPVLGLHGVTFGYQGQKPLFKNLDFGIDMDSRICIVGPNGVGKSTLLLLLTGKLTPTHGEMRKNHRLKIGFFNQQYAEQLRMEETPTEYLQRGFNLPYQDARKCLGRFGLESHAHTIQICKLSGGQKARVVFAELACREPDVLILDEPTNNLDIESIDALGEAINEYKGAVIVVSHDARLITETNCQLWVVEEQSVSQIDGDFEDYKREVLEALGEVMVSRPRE

No constants are given. Whether binding was seen depends on the method and setting. Binding seen in cells or lysates may run through a third protein. These calls come from enrichment with a bait or labelling near it, and not all partners need be listed.

In the test the target is human DHHC3 (hDHHC3) with a C-terminal Twin-Strep tag (human) (UniProt Q9NYG2). Description: affinity purification with mass spectrometry; purified C-terminal Strep-tagged hDHHC3 on Strep-Tactin resin incubated with HEK 293T lysate (RIPA) at 4 °C for 30 min; washed with buffer W, eluted with desthiobiotin; LC-MS/MS; Strep-Tactin beads alone as negative control; hits detected repeatedly in three experiments; only the target purified.
For “Aldehyde dehydrogenase (from UniProt P05091 18-517)”, the binding result is reported as “binds”.

Regarding “ATP-binding cassette subfamily F member 1 (from UniProt Q8NE71 1-845)”, the binding result is recorded as “binds”.

For “Sodium/potassium-transporting ATPase subunit beta-3 (from UniProt P54709 1-279)”, the binding result is given as “binds”.

As for B1, the binding entry is reported as “binds”.

As for B2, the binding result is “binds”.

Turning to B3, the binding result is “binds”.

As to B4, the binding result is recorded as “binds”.

Consider B5, for which the binding entry is recorded as “binds”.

In the case of B6, the binding entry was “binds”.

On to B7, for which the binding entry is on record as “binds”.

Consider B8, for which the binding result was “binds”.

Turning to B9, the binding result was “binds”.

For B10, the binding result is on record as “binds”.

Values taken from publication PMC9332573.
